PubChem BioAssay AID1259405 – NCATS – 2018

Screen: 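Silenced genes that increase secreted GFP made by CHO cells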 (primary screen)
Cell system: Chinese hamster CHO-K1 ovary cells with stable secreted eGFP expression
Reagents: single siRNA against mouse genes, 0.8 pmol siRNA per well (2 µl of 400 nM stock)
Timing: 3 days
Read-out: 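Per-well intracellular GFP measured by laser scanning cytometry, plus viability from ATP luminescence, each relative to plate median of non-targeting control wells, in %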
Reading the numbers: GFP, % of control: higher = more GFP per well, higher productivity; viability (ATP), % of control: higher = more viable cells (more ATP)
Rule for the call: 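Called active when intracellular GFP, relative to negative control, is at or above 120%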
The whole screen tested about 50,000 reagents; shown is a part drawn at random. About 4,000 of them (8%) count as active. 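Mouse siRNA library applied to hamster cells; one well for each siRNA.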 Unmarked entries are inactive. Reagents against one gene are numbered here.

Wtap (GeneID 60532) #1
- GFP, % of control: 67.6
- viability (ATP), % of control: 71.8

Wtap (GeneID 60532) #2
- GFP, % of control: 119
- viability (ATP), % of control: 77.7

Wtap (GeneID 60532) #3
- GFP, % of control: 73
- viability (ATP), % of control: 81

Mrgprb5 (GeneID 404239) #1
- GFP, % of control: 45.4
- viability (ATP), % of control: 55.1

Mrgprb5 (GeneID 404239) #2
- GFP, % of control: 75.2
- viability (ATP), % of control: 72.6

Mrgprb5 (GeneID 404239) #3
- GFP, % of control: 69.8
- viability (ATP), % of control: 82.9

Hbegf (GeneID 15200) #1
- GFP, % of control: 67.6
- viability (ATP), % of control: 59.7

Hbegf (GeneID 15200) #2
- GFP, % of control: 113
- viability (ATP), % of control: 100

Next part, starting with the last 2 of the part before.
Hbegf (GeneID 15200) #1
- GFP, % of control: 67.6
- viability (ATP), % of control: 59.7

Hbegf (GeneID 15200) #2
- GFP, % of control: 113
- viability (ATP), % of control: 100

Acaa1a (GeneID 113868) #1
- GFP, % of control: 68.3
- viability (ATP), % of control: 71.9

Acaa1a (GeneID 113868) #2
- GFP, % of control: 100
- viability (ATP), % of control: 101

Acaa1a (GeneID 113868) #3
- GFP, % of control: 114
- viability (ATP), % of control: 118

Ms4a4d (GeneID 66607) #1
- GFP, % of control: 96.6
- viability (ATP), % of control: 68.9

Ms4a4d (GeneID 66607) #2
- GFP, % of control: 90.8
- viability (ATP), % of control: 51.8

Ms4a4d (GeneID 66607) #3
- GFP, % of control: 71.1
- viability (ATP), % of control: 53.8

Ncmap (GeneID 230822) #1
- GFP, % of control: 84.5
- viability (ATP), % of control: 85

Ncmap (GeneID 230822) #2
- GFP, % of control: 53.9
- viability (ATP), % of control: 51.6

Ncmap (GeneID 230822) #3
- GFP, % of control: 95.7
- viability (ATP), % of control: 95.8
